# This is one part of the list.
# Sequences of proteins named here, by UniProt entry; tags and fusion partners are left off. A change or cut given only in a name is not applied to a line headed by its entry.
# UniProt P15927: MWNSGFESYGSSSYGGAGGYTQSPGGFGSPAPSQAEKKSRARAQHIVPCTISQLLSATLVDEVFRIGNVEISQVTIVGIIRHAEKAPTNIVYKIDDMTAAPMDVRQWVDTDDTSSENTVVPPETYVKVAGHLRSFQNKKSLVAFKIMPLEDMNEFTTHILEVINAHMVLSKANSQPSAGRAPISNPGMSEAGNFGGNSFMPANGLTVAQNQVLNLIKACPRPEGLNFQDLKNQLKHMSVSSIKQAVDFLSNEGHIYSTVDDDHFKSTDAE
# Target: RPA2_P15927_49_AQHIVPCTISQLLSATLVDEVFR (UniProt P15927)
# Assay: probe-labelled cysteine peptide fold change vs DMSO (competition) (log2 fold change); higher = less target engagement (more negative = stronger competition)
# Conditions: THP-1, incubation time: 4 h
# 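Further: competitive profiling in live THP-1 cells: cysteine peptides tagged with an iodoacetamide desthiobiotin (IA-DTB) probe, intensity after compound treatment relative to DMSO-treated cells.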
smiles,measurement,setting,value
Cc1cc(C(=O)N2CCCN(C(=O)CCl)CC2)ccc1-c1ccccc1 [compound 10],probe-labelled cysteine peptide fold change,10 µM,0.159
same,probe-labelled cysteine peptide fold change,50 µM,0.205
